Some of the results follow.
What was measured:
Assay in all cases: log2 fold change, soluble protein after heating vs DMSO (PISA); higher = thermal stabilisation; K562 cells, 10 uM, 30 min; active = over 0.2 and 3.5 SD of the protein, either way, in both replicates (recomputed)
[1] = compound: Cc1cccc(CC(=O)N2CCc3c2ccc(-c2cn(C)c4ncnc(N)c24)c3F)n1
How it was run: (§1)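 Quantification of soluble protein used TMTpro 16plex LC-MS/MS, with channel sums equalised. Samples were the supernatant after 21,000xg for 90 min of pooled aliquots from K562 cells (2×10^6 cells/mL) treated with 10 μM compound for 30 min, heated for 3 min over 48°C-58°C, and extracted in PBS with 0.5% NP-40 at 4°C. Values, from duplicates, describe thermal stability against control samples on a log2 fold-change scale.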

The chains behind the UniProt entries cited, without tags or fusion partners. Where a name states a change or a piece, a line headed by the entry shows the natural chain unless it says otherwise.
UniProt Q6NTE8: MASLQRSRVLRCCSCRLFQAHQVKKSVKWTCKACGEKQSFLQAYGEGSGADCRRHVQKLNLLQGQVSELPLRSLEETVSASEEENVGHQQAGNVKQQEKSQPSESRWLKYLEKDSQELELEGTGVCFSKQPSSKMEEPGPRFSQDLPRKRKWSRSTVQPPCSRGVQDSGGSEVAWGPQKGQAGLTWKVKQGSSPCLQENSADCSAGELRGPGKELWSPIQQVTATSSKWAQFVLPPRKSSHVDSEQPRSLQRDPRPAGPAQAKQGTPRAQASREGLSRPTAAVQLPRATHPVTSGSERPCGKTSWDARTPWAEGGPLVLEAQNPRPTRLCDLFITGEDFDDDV
UniProt Q9UHC7: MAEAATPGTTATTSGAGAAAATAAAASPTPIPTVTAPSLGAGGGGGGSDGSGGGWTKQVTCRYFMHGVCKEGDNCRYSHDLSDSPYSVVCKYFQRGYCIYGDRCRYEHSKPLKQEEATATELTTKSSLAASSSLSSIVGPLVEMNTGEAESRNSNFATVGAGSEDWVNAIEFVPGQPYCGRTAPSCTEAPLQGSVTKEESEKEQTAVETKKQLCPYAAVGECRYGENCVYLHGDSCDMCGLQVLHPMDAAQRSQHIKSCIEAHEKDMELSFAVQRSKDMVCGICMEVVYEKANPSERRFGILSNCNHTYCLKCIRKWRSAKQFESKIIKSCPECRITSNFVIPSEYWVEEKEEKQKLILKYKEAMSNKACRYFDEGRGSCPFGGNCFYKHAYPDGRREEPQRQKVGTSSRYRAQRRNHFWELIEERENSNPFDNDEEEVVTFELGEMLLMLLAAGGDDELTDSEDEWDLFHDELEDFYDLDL
UniProt Q70IA6: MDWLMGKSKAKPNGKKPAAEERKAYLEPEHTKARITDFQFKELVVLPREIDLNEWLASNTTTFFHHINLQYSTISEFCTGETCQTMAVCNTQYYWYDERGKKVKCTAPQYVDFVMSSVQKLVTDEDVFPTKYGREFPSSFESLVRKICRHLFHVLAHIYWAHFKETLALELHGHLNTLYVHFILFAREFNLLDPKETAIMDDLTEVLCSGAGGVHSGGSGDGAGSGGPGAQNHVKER
UniProt Q8IVH4: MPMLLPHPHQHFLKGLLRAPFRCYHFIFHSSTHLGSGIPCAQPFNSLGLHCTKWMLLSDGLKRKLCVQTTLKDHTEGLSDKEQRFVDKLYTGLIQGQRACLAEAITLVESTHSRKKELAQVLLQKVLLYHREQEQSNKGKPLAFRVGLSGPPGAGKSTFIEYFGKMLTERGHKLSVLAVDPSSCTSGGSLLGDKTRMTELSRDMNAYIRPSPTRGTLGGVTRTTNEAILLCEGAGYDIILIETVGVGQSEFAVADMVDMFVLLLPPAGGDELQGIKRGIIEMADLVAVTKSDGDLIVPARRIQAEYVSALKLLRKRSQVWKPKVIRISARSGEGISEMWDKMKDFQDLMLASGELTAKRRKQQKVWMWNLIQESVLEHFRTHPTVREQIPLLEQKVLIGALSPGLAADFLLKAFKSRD
UniProt Q5TGZ0: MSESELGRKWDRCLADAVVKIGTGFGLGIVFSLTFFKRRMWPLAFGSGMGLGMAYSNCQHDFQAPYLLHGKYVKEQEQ
UniProt P39210: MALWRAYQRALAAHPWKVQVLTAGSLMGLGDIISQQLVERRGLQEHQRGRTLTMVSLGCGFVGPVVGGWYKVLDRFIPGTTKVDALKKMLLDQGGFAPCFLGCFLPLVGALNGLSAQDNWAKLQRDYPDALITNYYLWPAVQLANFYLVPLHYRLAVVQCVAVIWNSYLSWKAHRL
UniProt Q9BVC4, whole entry, looked up: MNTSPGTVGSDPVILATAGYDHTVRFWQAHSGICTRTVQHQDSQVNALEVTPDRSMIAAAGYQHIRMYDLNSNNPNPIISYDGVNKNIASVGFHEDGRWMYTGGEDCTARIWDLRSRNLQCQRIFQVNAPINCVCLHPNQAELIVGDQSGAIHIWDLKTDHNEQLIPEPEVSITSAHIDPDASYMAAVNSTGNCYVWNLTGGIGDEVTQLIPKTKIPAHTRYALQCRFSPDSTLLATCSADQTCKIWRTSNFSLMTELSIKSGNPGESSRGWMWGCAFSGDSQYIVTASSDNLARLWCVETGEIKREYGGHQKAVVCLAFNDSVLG
UniProt Q4G0A6: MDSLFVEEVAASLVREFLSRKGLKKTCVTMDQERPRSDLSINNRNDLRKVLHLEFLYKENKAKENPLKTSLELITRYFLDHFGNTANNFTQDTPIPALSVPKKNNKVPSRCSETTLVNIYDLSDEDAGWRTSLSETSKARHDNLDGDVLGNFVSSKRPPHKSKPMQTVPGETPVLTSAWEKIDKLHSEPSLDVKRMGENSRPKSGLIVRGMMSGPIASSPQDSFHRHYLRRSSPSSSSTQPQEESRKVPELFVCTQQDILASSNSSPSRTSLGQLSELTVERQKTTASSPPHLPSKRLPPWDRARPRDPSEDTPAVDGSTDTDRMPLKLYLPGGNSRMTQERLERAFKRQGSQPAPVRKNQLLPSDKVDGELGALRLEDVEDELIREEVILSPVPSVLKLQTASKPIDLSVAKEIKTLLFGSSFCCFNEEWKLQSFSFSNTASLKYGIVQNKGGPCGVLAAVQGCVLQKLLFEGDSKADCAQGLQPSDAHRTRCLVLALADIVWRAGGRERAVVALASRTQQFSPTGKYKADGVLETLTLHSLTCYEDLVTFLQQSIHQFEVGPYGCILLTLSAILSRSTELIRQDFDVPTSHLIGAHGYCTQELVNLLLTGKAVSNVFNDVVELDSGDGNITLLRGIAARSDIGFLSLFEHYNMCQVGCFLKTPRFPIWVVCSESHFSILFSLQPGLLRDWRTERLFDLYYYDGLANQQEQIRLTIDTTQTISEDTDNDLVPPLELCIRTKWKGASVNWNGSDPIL
UniProt Q9Y6X9: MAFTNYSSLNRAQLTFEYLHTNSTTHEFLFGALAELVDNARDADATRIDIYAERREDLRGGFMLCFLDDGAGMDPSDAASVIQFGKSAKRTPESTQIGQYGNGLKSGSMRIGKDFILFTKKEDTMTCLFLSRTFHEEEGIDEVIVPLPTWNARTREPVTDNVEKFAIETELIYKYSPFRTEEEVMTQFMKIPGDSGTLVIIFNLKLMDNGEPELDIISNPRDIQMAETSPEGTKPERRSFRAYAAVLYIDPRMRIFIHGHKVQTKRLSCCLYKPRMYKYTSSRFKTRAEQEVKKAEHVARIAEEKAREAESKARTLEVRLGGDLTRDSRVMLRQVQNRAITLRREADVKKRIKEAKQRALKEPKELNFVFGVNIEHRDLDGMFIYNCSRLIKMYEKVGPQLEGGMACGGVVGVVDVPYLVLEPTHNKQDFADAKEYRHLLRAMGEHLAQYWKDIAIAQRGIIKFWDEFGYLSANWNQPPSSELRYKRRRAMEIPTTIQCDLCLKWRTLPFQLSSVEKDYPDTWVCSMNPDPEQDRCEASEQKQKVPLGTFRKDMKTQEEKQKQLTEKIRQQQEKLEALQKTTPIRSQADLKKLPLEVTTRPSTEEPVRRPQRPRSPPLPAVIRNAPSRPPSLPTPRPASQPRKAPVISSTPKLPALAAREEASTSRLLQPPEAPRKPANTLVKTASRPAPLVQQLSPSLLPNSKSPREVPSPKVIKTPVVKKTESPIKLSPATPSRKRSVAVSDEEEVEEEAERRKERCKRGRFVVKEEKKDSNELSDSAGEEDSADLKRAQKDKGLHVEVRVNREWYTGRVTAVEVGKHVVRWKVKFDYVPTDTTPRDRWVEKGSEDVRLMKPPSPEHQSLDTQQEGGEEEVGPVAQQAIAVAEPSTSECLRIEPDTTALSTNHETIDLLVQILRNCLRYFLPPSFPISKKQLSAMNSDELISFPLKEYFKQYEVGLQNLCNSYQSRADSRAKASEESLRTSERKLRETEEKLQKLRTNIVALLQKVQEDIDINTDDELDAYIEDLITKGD
UniProt Q13064: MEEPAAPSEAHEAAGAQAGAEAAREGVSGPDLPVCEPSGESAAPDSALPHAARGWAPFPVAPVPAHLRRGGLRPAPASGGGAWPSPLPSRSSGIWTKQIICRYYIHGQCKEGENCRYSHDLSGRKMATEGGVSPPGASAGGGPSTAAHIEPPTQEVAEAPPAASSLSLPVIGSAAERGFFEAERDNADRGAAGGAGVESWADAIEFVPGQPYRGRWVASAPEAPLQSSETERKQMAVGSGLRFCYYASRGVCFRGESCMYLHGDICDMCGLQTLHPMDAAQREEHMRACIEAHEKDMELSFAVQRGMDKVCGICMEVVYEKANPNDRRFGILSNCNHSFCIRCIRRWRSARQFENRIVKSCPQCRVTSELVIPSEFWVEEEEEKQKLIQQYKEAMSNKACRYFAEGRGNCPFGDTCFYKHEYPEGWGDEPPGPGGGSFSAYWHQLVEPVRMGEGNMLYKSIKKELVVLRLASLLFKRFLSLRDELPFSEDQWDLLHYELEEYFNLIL
UniProt O96033: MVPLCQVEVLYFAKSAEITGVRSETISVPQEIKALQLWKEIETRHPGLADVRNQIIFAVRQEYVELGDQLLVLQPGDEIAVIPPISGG
UniProt Q95460, whole entry, looked up: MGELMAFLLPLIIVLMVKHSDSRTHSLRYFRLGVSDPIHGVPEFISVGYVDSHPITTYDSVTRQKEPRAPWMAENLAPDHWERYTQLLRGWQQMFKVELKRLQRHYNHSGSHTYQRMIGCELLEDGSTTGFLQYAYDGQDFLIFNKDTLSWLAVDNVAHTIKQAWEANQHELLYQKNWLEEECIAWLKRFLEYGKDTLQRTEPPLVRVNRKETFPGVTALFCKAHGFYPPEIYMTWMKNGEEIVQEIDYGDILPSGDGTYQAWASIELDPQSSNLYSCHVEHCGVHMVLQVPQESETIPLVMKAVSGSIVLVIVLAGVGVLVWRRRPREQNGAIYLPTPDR
UniProt Q8NBR6: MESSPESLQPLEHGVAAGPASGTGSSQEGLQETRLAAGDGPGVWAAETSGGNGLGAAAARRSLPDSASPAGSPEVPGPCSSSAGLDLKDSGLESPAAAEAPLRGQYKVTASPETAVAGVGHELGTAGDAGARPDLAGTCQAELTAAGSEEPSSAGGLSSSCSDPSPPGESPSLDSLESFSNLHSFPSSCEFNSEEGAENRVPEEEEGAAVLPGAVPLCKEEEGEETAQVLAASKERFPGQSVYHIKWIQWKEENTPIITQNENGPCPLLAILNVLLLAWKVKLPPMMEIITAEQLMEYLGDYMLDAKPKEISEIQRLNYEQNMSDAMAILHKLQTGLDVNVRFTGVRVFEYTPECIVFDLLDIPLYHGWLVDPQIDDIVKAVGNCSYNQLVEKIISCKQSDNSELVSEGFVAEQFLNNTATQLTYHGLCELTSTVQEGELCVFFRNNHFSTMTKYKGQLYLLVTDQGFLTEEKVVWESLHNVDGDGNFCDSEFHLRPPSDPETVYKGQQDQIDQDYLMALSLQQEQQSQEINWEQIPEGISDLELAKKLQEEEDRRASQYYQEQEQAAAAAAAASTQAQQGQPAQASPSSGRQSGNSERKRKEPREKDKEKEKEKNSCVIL
UniProt O95297: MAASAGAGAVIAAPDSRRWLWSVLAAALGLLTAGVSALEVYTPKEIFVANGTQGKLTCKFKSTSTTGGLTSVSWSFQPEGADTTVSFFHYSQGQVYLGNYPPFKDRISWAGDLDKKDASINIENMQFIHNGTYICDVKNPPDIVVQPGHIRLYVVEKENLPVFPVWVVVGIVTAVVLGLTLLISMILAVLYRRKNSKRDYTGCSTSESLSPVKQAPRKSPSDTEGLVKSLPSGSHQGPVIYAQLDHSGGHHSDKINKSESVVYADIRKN
UniProt Q8N4V1: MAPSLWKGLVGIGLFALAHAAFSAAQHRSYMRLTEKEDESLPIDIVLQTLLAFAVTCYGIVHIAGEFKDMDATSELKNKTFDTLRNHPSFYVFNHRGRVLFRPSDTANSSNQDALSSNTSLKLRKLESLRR
UniProt P40692: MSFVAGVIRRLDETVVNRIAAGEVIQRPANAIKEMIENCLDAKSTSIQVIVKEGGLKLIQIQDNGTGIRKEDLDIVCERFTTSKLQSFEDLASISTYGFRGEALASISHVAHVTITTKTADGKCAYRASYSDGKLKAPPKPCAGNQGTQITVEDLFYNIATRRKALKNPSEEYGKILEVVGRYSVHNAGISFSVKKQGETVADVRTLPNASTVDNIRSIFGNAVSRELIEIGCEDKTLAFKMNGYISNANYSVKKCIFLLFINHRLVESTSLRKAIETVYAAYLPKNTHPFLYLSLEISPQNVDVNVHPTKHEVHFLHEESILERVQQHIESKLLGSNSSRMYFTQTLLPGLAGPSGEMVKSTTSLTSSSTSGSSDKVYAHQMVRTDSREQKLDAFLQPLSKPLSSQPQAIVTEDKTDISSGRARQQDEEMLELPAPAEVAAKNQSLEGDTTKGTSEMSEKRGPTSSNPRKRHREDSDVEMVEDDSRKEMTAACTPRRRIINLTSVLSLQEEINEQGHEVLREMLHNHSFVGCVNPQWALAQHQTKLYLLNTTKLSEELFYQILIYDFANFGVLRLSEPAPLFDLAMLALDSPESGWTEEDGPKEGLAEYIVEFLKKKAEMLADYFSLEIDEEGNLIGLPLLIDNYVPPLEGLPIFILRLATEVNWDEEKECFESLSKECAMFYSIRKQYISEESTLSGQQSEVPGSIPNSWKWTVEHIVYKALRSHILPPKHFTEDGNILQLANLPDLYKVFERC

nilotinib = compound: Cc1cn(-c2cc(NC(=O)c3ccc(C)c(Nc4nccc(-c5cccnc5)n4)c3)cc(C(F)(F)F)c2)cn1 [nilotinib]
How it was run: as §1

[2] = compound: Cc1nc(Nc2n[nH]c3c2CN(C(=O)N[C@H](CN(C)C)c2ccccc2)C3(C)C)c2sccc2n1
How it was run: as §1

[3] = compound: Cc1ncc(-c2ccnc(Nc3ccc(S(C)(=O)=O)cc3)n2)n1C(C)C
How it was run: as §1

mubritinib = compound: FC(F)(F)c1ccc(/C=C/c2nc(COc3ccc(CCCCn4ccnn4)cc3)co2)cc1 [mubritinib]
How it was run: as §1

[4] = compound: NC(=O)Nc1cc(-c2cccc(F)c2)sc1C(=O)N[C@H]1CCCNC1
How it was run: as §1

[5] = compound: NC(=O)c1cnc(N[C@@H]2CCCC[C@@H]2N)nc1Nc1cccc(-n2nccn2)c1
How it was run: as §1

[6] = compound: NC1(c2ccc(-c3nc4ccn5c(=O)[nH]nc5c4cc3-c3ccccc3)cc2)CCC1
How it was run: as §1

[7] = compound: NCC(=O)Nc1ccc(-n2nc(C(F)(F)F)cc2-c2ccc3c(ccc4ccccc43)c2)cc1
How it was run: as §1

entinostat = compound: Nc1ccccc1NC(=O)c1ccc(CNC(=O)OCc2cccnc2)cc1 [entinostat]
How it was run: as §1

vorinostat = compound: O=C(CCCCCCC(=O)Nc1ccccc1)NO [vorinostat]
How it was run: as §1

citarinostat = compound: O=C(CCCCCCNC(=O)c1cnc(N(c2ccccc2)c2ccccc2Cl)nc1)NO [citarinostat]
How it was run: as §1

silmitasertib = compound: O=C(O)c1ccc2c(c1)nc(Nc1cccc(Cl)c1)c1ccncc12 [silmitasertib]
How it was run: as §1

[8] = compound: c1cc(OCCN2CCCCC2)cc(-c2n[nH]c3ccc(-c4nnc[nH]4)cc23)c1
How it was run: as §1

[9] = compound: Cn1cc(-c2ccc3nnc(C(F)(F)c4ccc5ncccc5c4)n3n2)cn1
How it was run: as §1

tipifarnib = compound: Cn1cncc1[C@@](N)(c1ccc(Cl)cc1)c1ccc2c(c1)c(-c1cccc(Cl)c1)cc(=O)n2C [tipifarnib]
How it was run: as §1

[10] = compound: O=C1NC(=O)C(c2cnc3ccccn23)=C1c1cn2c3c(cc(F)cc13)CN(C(=O)N1CCCCC1)CC2
How it was run: as §1

bafetinib = compound: Cc1ccc(NC(=O)c2ccc(CN3CC[C@H](N(C)C)C3)c(C(F)(F)F)c2)cc1Nc1nccc(-c2cncnc2)n1 [bafetinib]
How it was run: as §1

[11] = compound: Cn1cc(-c2ccc3c(c2)CCN3C(=O)Cc2cccc(C(F)(F)F)c2)c2c(N)ncnc21
How it was run: as §1

dasatinib = compound: Cc1nc(Nc2ncc(C(=O)Nc3c(C)cccc3Cl)s2)cc(N2CCN(CCO)CC2)n1 [dasatinib]
How it was run: as §1

Target | log2 fold change [1] | log2 fold change (nilotinib) | log2 fold change [2] | log2 fold change [3] | log2 fold change (mubritinib) | log2 fold change [4] | log2 fold change [5] | log2 fold change [6] | log2 fold change [7] | log2 fold change (entinostat) | log2 fold change (vorinostat) | log2 fold change (citarinostat) | log2 fold change (silmitasertib) | log2 fold change [8] | log2 fold change [9] | log2 fold change (tipifarnib) | log2 fold change [10] | log2 fold change (bafetinib) | log2 fold change [11] | log2 fold change (dasatinib)
MITF (UniProt O75030) | inactive: 0.001 | inactive: -0.071 | inactive: -0.07 | inactive: -0.047 | inactive: 0.084 | inactive: -0.023 | inactive: 0.021 | inactive: -0.11 | inactive: 0.302 | inactive: -0.048 | inactive: 0.2 | inactive: 0.083 | inactive: 0.071 | inactive: -0.022 | – | – | – | – | – | –
MRNIP (UniProt Q6NTE8) | inactive: -0.021 | inactive: 0.084 | inactive: 0.089 | inactive: -0.107 | inactive: 0.17 | inactive: 0.022 | – | inactive: 0.067 | inactive: -0.049 | inactive: -0.039 | inactive: 0.012 | inactive: 0.073 | inactive: 0.094 | inactive: 0.003 | inactive: -0.254 | inactive: 0.037 | inactive: 0.005 | – | – | –
MKRN1 (UniProt Q9UHC7) | inactive: -0.106 | inactive: 0.017 | inactive: -0.048 | inactive: 0.027 | inactive: -0.087 | – | – | inactive: 0.219 | inactive: -0.055 | – | inactive: 0.024 | – | inactive: 0.057 | – | inactive: -0.074 | inactive: 0.114 | inactive: 0.174 | inactive: 0.054 | inactive: -0.145 | –
MOB2 isoform 3 (UniProt Q70IA6) | inactive: -0.039 | inactive: -0.133 | active: -1.47 | inactive: 0.03 | inactive: -0.108 | – | – | inactive: -0.251 | – | – | inactive: 0.044 | – | inactive: 0.062 | – | inactive: 0.056 | inactive: 0.013 | inactive: -0.368 | inactive: 0.005 | inactive: -0.069 | –
MMAA (UniProt Q8IVH4) | – | – | – | – | – | inactive: 0.087 | inactive: 0.011 | – | – | inactive: 0.099 | – | – | – | – | – | inactive: 0.09 | inactive: -0.064 | – | inactive: 0.017 | inactive: -0.012
MICOS10 (UniProt Q5TGZ0) | inactive: 0.061 | inactive: -0.014 | inactive: 0.007 | inactive: -0.095 | inactive: 0.007 | inactive: 0.021 | inactive: -0.098 | inactive: -0.09 | inactive: -0.152 | inactive: 0 | inactive: -0.188 | inactive: 0.007 | inactive: 0.014 | inactive: -0.024 | inactive: 0.197 | inactive: -0.103 | inactive: -0.064 | inactive: -0.055 | – | –
MPV17 (UniProt P39210) | inactive: -0.044 | inactive: 0.051 | inactive: 0.1 | inactive: 0.02 | inactive: 0.029 | inactive: -0.055 | inactive: 0.041 | inactive: -0.004 | – | inactive: -0.101 | inactive: -0.266 | inactive: 0.014 | inactive: -0.06 | inactive: 0.024 | inactive: 0.204 | inactive: 0.05 | inactive: -0.049 | inactive: 0.061 | inactive: 0.05 | –
MLST8 (UniProt Q9BVC4) | – | inactive: -0.125 | inactive: 0.085 | inactive: -0.059 | inactive: 0.1 | inactive: 0.064 | inactive: -0.201 | inactive: -0.182 | inactive: -0.082 | inactive: 0.127 | – | inactive: 0.043 | inactive: 0.105 | inactive: -0.025 | – | inactive: -0.109 | inactive: -0.03 | inactive: 0.005 | inactive: 0.028 | inactive: -0.152
MINDY4 (UniProt Q4G0A6) | – | – | – | – | – | inactive: 0.033 | – | – | – | inactive: 0.035 | – | – | – | – | inactive: -0.017 | – | – | – | – | –
MORC2 (UniProt Q9Y6X9) | – | – | – | – | inactive: 0.126 | – | inactive: -0.193 | inactive: -0.118 | – | – | – | – | inactive: -0.066 | – | – | inactive: 0.018 | inactive: -0.151 | inactive: -0.036 | – | –
MKRN3 (UniProt Q13064) | – | inactive: 0.007 | inactive: 0.017 | inactive: -0.006 | – | inactive: -0.095 | inactive: -0.438 | – | inactive: -0.368 | inactive: 0.069 | – | inactive: -0.017 | – | inactive: -0.079 | inactive: 0.055 | inactive: 0.026 | inactive: 0.061 | – | – | inactive: 0.035
MOCS2 (UniProt O96033) | inactive: 0.143 | – | – | – | – | inactive: 0.101 | inactive: 0.149 | – | – | inactive: 0.043 | inactive: 0.128 | inactive: 0.031 | – | inactive: -0.017 | – | – | – | – | inactive: 0.006 | inactive: -0.063
MR1 (UniProt Q95460) | – | – | – | – | inactive: 0.054 | – | – | inactive: -0.169 | – | – | – | – | inactive: 0.063 | – | – | – | inactive: -0.022 | – | – | –
MINDY2 (UniProt Q8NBR6) | – | – | – | – | inactive: 0.037 | – | – | inactive: 0.271 | – | – | – | – | inactive: -0.19 | – | – | – | inactive: 0.186 | – | inactive: -0.132 | –
MPZL1 isoform 3 (UniProt O95297) | – | – | – | – | – | – | inactive: 0.024 | – | – | – | – | – | – | – | – | – | – | – | inactive: -0.084 | inactive: 0.057
MRPL52 (UniProt Q86TS9) | – | – | – | – | – | inactive: 0.123 | – | – | – | inactive: 0.122 | – | inactive: -0.135 | – | inactive: 0.001 | – | – | – | – | – | inactive: 0.116
MMGT1 (UniProt Q8N4V1) | – | inactive: -0.063 | inactive: 0.12 | inactive: 0.029 | – | inactive: -0.031 | inactive: -0.036 | – | inactive: -0.029 | inactive: -0.006 | – | – | – | – | inactive: 0.106 | inactive: -0.076 | inactive: -0.019 | inactive: -0.028 | inactive: 0.158 | inactive: 0.018
MLH1 (UniProt P40692) | inactive: 0.035 | – | – | – | inactive: -0.073 | – | inactive: 0.058 | inactive: -0.102 | – | – | inactive: -0.042 | – | inactive: -0.017 | – | – | inactive: 0.047 | inactive: -0.098 | inactive: -0.063 | inactive: 0.005 | inactive: -0.212

Five entries from above, in markdown:

| Target | log2 fold change [1] | log2 fold change (nilotinib) | log2 fold change [2] | log2 fold change [3] | log2 fold change (mubritinib) | log2 fold change [4] | log2 fold change [5] | log2 fold change [6] | log2 fold change [7] | log2 fold change (entinostat) | log2 fold change (vorinostat) | log2 fold change (citarinostat) | log2 fold change (silmitasertib) | log2 fold change [8] | log2 fold change [9] | log2 fold change (tipifarnib) | log2 fold change [10] | log2 fold change (bafetinib) | log2 fold change [11] | log2 fold change (dasatinib) |
| --- | --- | --- | --- | --- | --- | --- | --- | --- | --- | --- | --- | --- | --- | --- | --- | --- | --- | --- | --- | --- |
| MINDY4 (UniProt Q4G0A6) | – | – | – | – | – | inactive: 0.033 | – | – | – | inactive: 0.035 | – | – | – | – | inactive: -0.017 | – | – | – | – | – |
| MORC2 (UniProt Q9Y6X9) | – | – | – | – | inactive: 0.126 | – | inactive: -0.193 | inactive: -0.118 | – | – | – | – | inactive: -0.066 | – | – | inactive: 0.018 | inactive: -0.151 | inactive: -0.036 | – | – |
| MKRN3 (UniProt Q13064) | – | inactive: 0.007 | inactive: 0.017 | inactive: -0.006 | – | inactive: -0.095 | inactive: -0.438 | – | inactive: -0.368 | inactive: 0.069 | – | inactive: -0.017 | – | inactive: -0.079 | inactive: 0.055 | inactive: 0.026 | inactive: 0.061 | – | – | inactive: 0.035 |
| MOCS2 (UniProt O96033) | inactive: 0.143 | – | – | – | – | inactive: 0.101 | inactive: 0.149 | – | – | inactive: 0.043 | inactive: 0.128 | inactive: 0.031 | – | inactive: -0.017 | – | – | – | – | inactive: 0.006 | inactive: -0.063 |
| MR1 (UniProt Q95460) | – | – | – | – | inactive: 0.054 | – | – | inactive: -0.169 | – | – | – | – | inactive: 0.063 | – | – | – | inactive: -0.022 | – | – | – |

Reference: the supplement of paper PMC10849652
